From US20210253711A1

Assays:
[1] = target: Recombinant MICA*08 protein; test: ELISA, antigen coated on the plate
[2] = target: Recombinant MICA*09 protein; test: ELISA, antigen coated on the plate
[3] = target: Recombinant MICA*02 protein; test: ELISA, antigen coated on the plate
[4] = target: Recombinant MICA*04 protein; test: ELISA, antigen coated on the plate
[5] = target: Recombinant MICA*08 protein; test: ELISA, coated MICA*08 (100 ng/well), goat anti-mouse IgG-HRP, OD 450 nm
[6] = target: Recombinant MICA*04 protein; test: ELISA, coated MICA*04 (100 ng/well), goat anti-mouse IgG-HRP, OD 450 nm
[7] = target: Recombinant MICA*02 protein; test: ELISA, coated MICA*02 (100 ng/well), goat anti-mouse IgG-HRP, OD 450 nm
[8] = target: MICA*08 expressed on TRAMP-C2 cells (TC2-MICA-08); test: flow cytometry, 500 ng antibody in 100 µl, PE goat anti-mouse IgG, TC2-MICA-08 cells against parental TC2 cells
[9] = target: Recombinant MICA*09 protein; test: ELISA, coated MICA*09 (100 ng/well), goat anti-mouse IgG-HRP, OD 450 nm
[10] = target: MICA*04-His protein; test: BLI epitope binning, MICA*04-His on Ni-NTA tips
[11] = target: MICA*08 expressed on TRAMP-C2 cells (TC2-MICA-08); test: flow cytometry on TC2-MICA-08 cells, 500 ng antibody in 100 µl
[12] = target: MICA*08 expressed on TRAMP-C2 cells (TC2-MICA-08); test: flow cytometry on TC2-MICA-08 cells

| binding [1] | binding [2] | binding [3] | binding [4] | binding [5] | binding [6] | binding [7] | binding [8] | binding [9] | binding [10] | binding [11] | binding [12] | Binder |
| --- | --- | --- | --- | --- | --- | --- | --- | --- | --- | --- | --- | --- |
| binds | binds | binds | binds | binds | binds | binds | binds | binds | binds | binds | binds | 3F9.E4 (antibody, V domains shown) VH: EVQLQESGEGLVKPGGSLKLSCAASGFTFSNYAMSWVRQTPEKRLEWVAYISPGGDYIYYADTVKGRFTISRDNARNTLYLQMSSLKSEDTAMYYCTTDRRHYGSYAMDYWGQGISVTVSS VL: DIVMTQAAPSVPVTPGESVSISCRSSKSLLHSNGNTYLYWFLQRPGQSPQLLIYRMSNLASGVPDRFSGSGSGTAFTLRISRVEAEDVGVYYCMQHLEYPFTFGSGTKLEIK |
| binds | binds | binds | binds | binds | binds | binds |  | binds | binds |  |  | 16F10.C12 (antibody, V domains shown) VH: EVQLQESGPGLVAPSQSLSITCTVSGFSLTAFGVNWVRQPPGKGLEWLGMIWGDGNTDYNSTLRSRLSISKDNSKSQVFLKLNSLQTDDTARYFCARETYYGNYAGLGYWGQGTLVTVSA VL: QIVLTQSPAIMSASIGERVTMTCTASSSVSSNYLHWYQQKPRSSPKLWIYTTSNLASGVPTRFSGSGSGTSYSLTISSMEAEDAATYYCHQFHRSPFTFGSGTKLEIK |

Results are given in words; binding and its absence hold for the method and conditions named. A result given as binding can be weak or reduced; the word gives no strength.
